The target of series [1] is BSA (bovine serum albumin) (UniProt P02769). Nature of the series: EMSA. To be noted: 50 mg/ml BSA alone, 100 nM Cy5-HSE; EMSA: 200 nM HSF1, 100 nM DNA, 25 mM HEPES pH 7.4, 150 mM NaCl, 10% glycerol, 3 mM beta-mercaptoethanol, 38-40 C or ice, then ice 30 min, 1% agarose TBE 4 C; commercial protein; label: 5' Cy5 on printed strand.
The target in series [2] is T1, HSF1 trimer (SEC-purified) (human (Homo sapiens)) (UniProt Q00613).
T1 sequence (looked up): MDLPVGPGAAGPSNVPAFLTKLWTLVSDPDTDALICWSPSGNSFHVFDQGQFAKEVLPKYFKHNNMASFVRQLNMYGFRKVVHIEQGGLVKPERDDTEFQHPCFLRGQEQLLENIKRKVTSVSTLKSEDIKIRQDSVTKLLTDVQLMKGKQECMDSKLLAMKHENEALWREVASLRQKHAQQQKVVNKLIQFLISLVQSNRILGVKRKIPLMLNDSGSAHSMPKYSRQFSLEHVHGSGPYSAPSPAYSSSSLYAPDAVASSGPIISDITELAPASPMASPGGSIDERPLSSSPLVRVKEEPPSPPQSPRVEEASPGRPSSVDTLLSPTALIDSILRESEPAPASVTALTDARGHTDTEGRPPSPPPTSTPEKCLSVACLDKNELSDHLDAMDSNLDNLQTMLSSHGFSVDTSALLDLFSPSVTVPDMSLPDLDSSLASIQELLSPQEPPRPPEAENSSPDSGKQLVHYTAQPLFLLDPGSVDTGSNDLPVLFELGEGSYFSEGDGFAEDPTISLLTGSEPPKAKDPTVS
In words: fluorescence polarization. The conditions noted are these: Kd fitted but value not in the material, FP: 30 nM DNA, 150 mM NaCl, 50 mM HEPES pH 7.2, 1 mM DTT, 0.05% Tween-20, 25 C, recombinant protein, residues 1-529, protein details: N-terminal His6-TEV, cleaved by TEV before assay, label: 5' FAM on printed strand.

The chains behind the UniProt entries cited, without tags or fusion partners. Residues count along the entry.
UniProt P02769, 25-607: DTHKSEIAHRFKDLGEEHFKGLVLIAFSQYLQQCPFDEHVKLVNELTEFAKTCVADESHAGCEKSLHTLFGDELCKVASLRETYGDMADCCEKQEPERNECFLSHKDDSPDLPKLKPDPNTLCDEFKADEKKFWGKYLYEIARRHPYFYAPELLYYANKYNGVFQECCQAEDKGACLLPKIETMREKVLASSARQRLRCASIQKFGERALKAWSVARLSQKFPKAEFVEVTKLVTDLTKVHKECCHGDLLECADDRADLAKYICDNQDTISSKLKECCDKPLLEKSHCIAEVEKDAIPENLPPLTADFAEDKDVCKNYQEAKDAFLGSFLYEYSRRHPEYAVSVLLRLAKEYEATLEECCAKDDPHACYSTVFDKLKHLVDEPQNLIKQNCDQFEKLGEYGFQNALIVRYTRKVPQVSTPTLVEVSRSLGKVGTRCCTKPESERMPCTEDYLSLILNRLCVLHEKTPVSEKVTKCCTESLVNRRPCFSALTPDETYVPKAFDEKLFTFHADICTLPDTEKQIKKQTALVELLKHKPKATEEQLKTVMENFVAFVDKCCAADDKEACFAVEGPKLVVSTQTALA

Construct, isoform or probe ends are uncertain for at least one entry. For some assays here: Negatives hold for the conditions tested. For some assays here: At least one verdict was read from the data and is not stated in words by the source. For some assays here: Where a protein sequence is shown, tags need not be part of it.

Regarding “CCCCTTCCCGAATATTCCCCC (double strand) [Cy5-HSE]”, the binding result in series [1] is “no binding”.
“CCCCTTCCCGAATATTCCCCC (double strand) [FAM-HSE]”: the binding result in series [2] was “binds”.

For the origin of these results see paper PMC11534217.
